# According to the supplement of paper PMC8616043:
# Counter-ions that a name gives are not always drawn. Some of the results follow. This data set is noisy: repeats of one test often differ as much as different tests do.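 PR50, a 50-repeat proline–arginine dipeptide protein from C9ORF72 (ALS/FTD), was expressed by transfection in U-2 OS human cells stably carrying a GFP sensor with import and classical export signals. Per-well nuclear-minus-cytoplasm GFP, normalized between in-plate DMSO (low) and PR-only (high), was scored versus other test wells; compounds well below zero were hits reversing PR.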
# System: U-2 OS NCT-C biosensor cells expressing PR50
# Assay: Z-score of normalised NCT-C biosensor translocation index in PR50-expressing cells; higher = more nuclear biosensor (more disrupted nuclear export)
# Details: 3 µM; 24 h
row,SMILES,Z-score
1,O=C1Cc2c([nH]c3ccc(Br)cc23)-c2ccccc2N1 [Kenpaullone],inactive: 0.12
2,Cc1coc2c1C(=O)C(=O)c1c-2ccc2c1CCCC2(C)C [Tanshinone IIA],inactive: 0.558
3,CO/N=C(\C(=O)N[C@@H]1C(=O)N2C(C(=O)[O-])=C(C[N+]3(C)CCCC3)CS[C@H]12)c1csc(N)n1 [Cefepime·2HCl Hydrate],inactive: 0.434
4,CCOC(=O)CCNc1cc(N2CCc3ccccc3CC2)nc(-c2cccnc2)n1,active: -2.47
5,OC(c1cc(C(F)(F)F)nc2c(C(F)(F)F)cccc12)C1CCCCN1 (stereo not drawn) [Mefloquine·HCl],inactive: 0.0195
6,C[n+]1ccccc1CC(=O)c1ccc(Br)cc1,inactive: -1.1
7,NC[C@@H](O)c1ccc(O)c(O)c1 [L(-)-  Norepinephrine bitartrate],inactive: -0.0288
8,NC[C@@H](O)c1ccc(O)c(O)c1 (racemic) [(+-)-  Norepinephrine (+)bitartrate salt],inactive: 0.303
9,Cc1cc(Cn2cnc3c2C[C@@H](C(=O)O)N(C(=O)C(c2ccccc2)c2ccccc2)C3)ccc1N,inactive: 2.67
10,CC1(C)C[C@@H]1C(=O)N/C(=C\CCCCSC[C@H](N)C(=O)O)C(=O)O [Cilastatin·Na],inactive: 0.762
11,CCCCCCC(=O)OC1CC(C)(C)NC(C)(C)C1 [TMPH  hydrochloride],inactive: 0.561
12,Oc1cc2c(cc1O)CN(C(=S)NCCc1ccc(Cl)cc1)CCC2 [Capsazepine],inactive: -0.232
13,CCCCCN(CCCCC)C(=O)C(CCC(=O)O)NC(=O)c1ccc(Cl)c(Cl)c1 (stereo not drawn) [Lorglumide sodium],inactive: -0.23
14,COc1ccc(S(=O)(=O)Nc2c(C)cc(C)cc2C)cc1,inactive: -0.687
15,COc1ccc2[nH]c([S@@+]([O-])Cc3ncc(C)c(OC)c3C)nc2c1 [Esomeprazole Potassium],inactive: 0.695
16,COc1ccc2[nH]c([S@@+]([O-])Cc3ncc(C)c(OC)c3C)nc2c1 [Esomeprazole magnesium dihydrate],inactive: -0.241
17,Cc1cc(NC2CCCCC2)nc(-n2nc(C)cc2C)n1,inactive: -0.307
18,NCCSSCCN [Cystamine dihydrochloride],inactive: -0.445
19,Nc1nc2c(ncn2COCCO)c(=O)[nH]1 [Acyclovir],inactive: 0.653
20,CC1(C)SCCN(S(=O)(=O)c2ccc(OCC#CCO)cc2)[C@H]1C(=O)NO [Apratastat],inactive: -0.947
21,COc1c(N2C[C@@H]3CCCN[C@@H]3C2)c(F)cc2c(=O)c(C(=O)O)cn(C3CC3)c12 [Moxifloxacin·HCl],inactive: 0.613
22,O=C(O)C(Cc1c[nH]c2ccccc12)N1C(=O)c2ccccc2C1=O (stereo not drawn),active: -1.97
23,CCOc1cc(CC(=O)N[C@@H](CC(C)C)c2ccccc2N2CCCCC2)ccc1C(=O)O [Repaglinide],inactive: -0.522

row,SMILES,Z-score
1,Cc1c(F)ccc(C(=O)Nc2cc([N+](=O)[O-])ccc2N2CCN(C)CC2)c1Cl,active: -3.05
2,NC(CCCP(=O)(O)O)C(=O)O (stereo not drawn) [D(-)-2-Amino-5-  phosphonopentan oic acid],inactive: 0.06
3,C#C[C@]1(O)CC[C@H]2[C@@H]3CCc4cc(O)ccc4[C@H]3CC[C@@]21C [Ethinyl Estradiol],inactive: 0.611
4,Nc1nc(N)c2nc(CNc3ccc(C(=O)N[C@@H](CCC(=O)O)C(=O)O)cc3)cnc2n1 [Aminopterin],inactive: 0.578
5,CCCCN(Cc1ccc(C(=O)NO)cc1)C(=O)Nc1ccccc1 [Nexturastat A],inactive: -1.37
6,CC[C@H](NC(=O)c1c(C)c(-c2ccccc2)nc2ccccc12)c1ccccc1,inactive: 0.931
7,CCOC(=O)c1ncn2c1CN(C)C(=O)c1cc(F)ccc1-2 [Flumazenil],inactive: -0.679
8,O=NN(CCCl)C(=O)NCCCl [Carmustine],inactive: 1.3
9,CN1[C@@H]2CC[C@H]1CC(OC(=O)c1c[nH]c3ccccc13)C2 (stereo partly drawn) [3-Tropanyl-indole- 3-carboxylate hydrochloride],inactive: -0.327
10,COc1cc(C(C)=O)ccc1OCCCN1CCC(c2noc3cc(F)ccc23)CC1 [Iloperidone],inactive: 0.0165
11,CCCC1O[C@@H]2C[C@H]3[C@@H]4CCC5=CC(=O)C=C[C@]5(C)[C@H]4[C@@H](O)C[C@]3(C)[C@]2(C(=O)CO)O1 (stereo partly drawn) [Budesonide],inactive: 1.01
12,COC(=O)c1c(C)[nH]c(C)c1C(=O)c1ccccc1Cc1ccccc1,inactive: -0.409
13,O=C(c1ccc2c(c1)OCCO2)N1CCCCC1,inactive: 1.08
14,CC(C)(CN1C(=O)C(Cl)=C(Cl)C1=O)CN1C(=O)C(Cl)=C(Cl)C1=O,inactive: 4.46
15,CC(C)[C@H]1c2ccc(F)cc2CC[C@@]1(CCN(C)CCCc1nc2ccccc2[nH]1)OC(=O)C1CC1,inactive: -0.459
16,CC(C)OC(=O)CCC/C=C\C[C@@H]1[C@@H](/C=C/[C@@H](O)COc2cccc(C(F)(F)F)c2)[C@H](O)C[C@@H]1O [Travoprost],inactive: -0.368
17,O=C1CN(/N=C/c2ccc(-c3ccc([N+](=O)[O-])cc3)o2)C(=O)N1 [Dantrolene sodium],inactive: -0.515
18,C[C@H](N)[C@H](O)c1cccc(O)c1 [Metaraminol Bitartrate],inactive: 0.209
19,O=c1cc2c(=O)oc3cc(O)c(O)oc3c2c(O)c1O [Galloflavin],inactive: -0.762
20,OC1c2ccccc2N=C2CCCN21 (stereo not drawn) [Peganole],inactive: 0.453
21,NCCCC(N)(C(=O)O)C(F)F (racemic) [DL-alpha- Difluoromethyl ornithine HCl],inactive: -0.267
22,CC(C)N(CCCNC(=O)Nc1ccc(C(C)(C)C)cc1)C[C@H]1O[C@@H](n2cc(Br)c3c(N)ncnc32)[C@H](O)[C@@H]1O,inactive: -1.3
23,COc1ccc(-c2csc(NC(=O)[C@H]3CCCCN3S(=O)(=O)c3ccc(C)cc3)n2)cc1,inactive: -0.199

# As entered above:
# Z-score, NC(CCCP(=O)(O)O)C(=O)O (stereo not drawn) [D(-)-2-Amino-5-  phosphonopentan oic acid] reads inactive: 0.06
# Z-score, O=C1Cc2c([nH]c3ccc(Br)cc23)-c2ccccc2N1 [Kenpaullone] reads inactive: 0.12

# Carrying on.

row,SMILES,Z-score
1,c1ccc2c(c1)CN1CCCC1=N2 [Desoxypeganine],inactive: -1.08
2,"NC(N)=NC(=O)c1nc(Cl)c(N2CCCCCC2)nc1N [5-(N,N-  hexamethylene) amiloride]",inactive: 0.353
3,Cc1c(C(=O)O)c(O)cc2c1C(=O)c1c(O)c([C@@H]3O[C@H](CO)[C@@H](O)[C@H](O)[C@H]3O)c(O)c(O)c1C2=O [Carminic acid],inactive: -0.604
4,O=c1cc(-c2ccccc2)oc2cc(O)cc(O)c12 [Chrysine],inactive: -0.385
5,Nc1c2c(nc3ccccc13)CCCC2 [Tacrine·HCl],inactive: 0.211
6,"Nc1c2c(nc3ccccc13)CCCC2 [9-Amino-1,2,3,4-  tetrahydroacridine hydrochloride]",inactive: 0.459
7,c1ccc2c3c([nH]c2c1)[C@H]1[C@@H]2CC[C@@H]([C@@H]4CCCN[C@@H]42)N1CC3 [Nitrarine·2HCl],inactive: -0.513
8,CCN(CC)C(=S)SSC(=S)N(CC)CC [Disulfiram],inactive: -0.526
9,C=C[C@@]1(C)CC(=O)[C@]2(O)[C@@]3(C)[C@@H](O)CCC(C)(C)[C@@H]3[C@H](O)[C@H](OC(C)=O)[C@@]2(C)O1 [Forskolin],inactive: 1.41
10,CC1(C)O[C@@H]2C[C@H]3[C@@H]4CCC5=CC(=O)C=C[C@]5(C)[C@H]4[C@@H](O)C[C@]3(C)[C@]2(C(=O)CO)O1 [Desonide],inactive: -0.0249
11,"c1ccc(-c2ccccn2)nc1 [2,2'-Bipyridyl]",inactive: -0.233
12,COc1ccccc1N1CCN(CCN(C(=O)c2ccc(F)cc2)c2ccccn2)CC1 [p-MPPF  dihydrochloride],inactive: -0.0326
13,CCNC(=O)CCC/C=C\C[C@@H]1[C@@H](/C=C/[C@@H](O)CCc2ccccc2)[C@H](O)C[C@@H]1O [Bimatoprost],inactive: -0.23
14,CCCCOc1ccc(CC/C=C2\SC(=O)N(CCN)C2=O)cc1 [K145 hydrochloride],inactive: -0.464
15,COC(=O)C1=C(C)NC(C)=C(C(=O)OC2CCCN(Cc3ccccc3)C2)C1c1cccc([N+](=O)[O-])c1 (stereo not drawn) [Benidipine hydrochloride],inactive: 0.584
16,C[C@]12C[C@H](O)[C@H]3[C@@H](CCC4=CC(=O)CC[C@@]43C)[C@@H]1CC[C@@H]2C(=O)CO [Corticosterone],inactive: 3.01
17,O=C(/C=C/c1ccc(O)c(O)c1)c1ccc(O)cc1O [Butein],inactive: 0.973
18,COC(=O)C1=C(C)NC(C)=C([N+](=O)[O-])C1c1ccccc1C(F)(F)F (racemic),inactive: 2.53
19,NC[C@H]1O[C@H](O[C@H]2[C@H](O)[C@@H](O[C@H]3O[C@H](CO)[C@@H](O)[C@H](N)[C@H]3O)[C@H](N)C[C@@H]2N)[C@H](O)[C@@H](O)[C@@H]1O [Kanamycin sulfate],inactive: -0.535
20,NC[C@H]1O[C@H](O[C@H]2[C@H](O)[C@@H](O[C@H]3O[C@H](CO)[C@@H](O)[C@H](N)[C@H]3O)[C@H](N)C[C@@H]2N)[C@H](O)[C@@H](O)[C@@H]1O [Kanamycin Sulfate],inactive: -0.0399
21,O=C(CCCCCCC(=O)Nc1ccccc1)NO [Vorinostat],inactive: 0.911
22,CCc1ccc2c(-c3cccc(Cl)c3)nc(=O)n(CC)c2n1,inactive: -0.32
